Values quoted from earlier work as cited in US20200031771A1, “SUBSTITUTED PHENYLPROPIONIC ACID ENANTIOMER AND MANUFACTURING METHOD, COMPOSITION, AND APPLICATION OF SAME” (SHENZHEN CHIPSCREEN BIOSCIENCES CO., LTD., priority 2016, published 2020).
At least one structure is not confirmed: it was looked up by name or label, or the drawing left a doubt.

Conditions: Mitscher L A et al., J Med Chem 1987; cited from earlier work

CC1COc2c(N3CCN(C)CC3)c(F)cc3c(=O)c(C(=O)O)cn1c23 (stereo not drawn) [ofloxacin S-isomer, ofloxacin]
Antibacterial activity, times stronger than the R-isomer: 8-135 times
